From doi:10.1101/469700
Results are given in words; binding and its absence hold for the method and conditions named. In cells and extracts the contact can be indirect. Some results given as binding are weak or reduced against the parent protein; the word gives no strength. Where a sequence is shown, tags or fusion partners need not be part of it.

By UniProt entry, the sequences of proteins in these tests, tags left out. Residues count along the entry.
UniProt Q3URE9, residues 28-606: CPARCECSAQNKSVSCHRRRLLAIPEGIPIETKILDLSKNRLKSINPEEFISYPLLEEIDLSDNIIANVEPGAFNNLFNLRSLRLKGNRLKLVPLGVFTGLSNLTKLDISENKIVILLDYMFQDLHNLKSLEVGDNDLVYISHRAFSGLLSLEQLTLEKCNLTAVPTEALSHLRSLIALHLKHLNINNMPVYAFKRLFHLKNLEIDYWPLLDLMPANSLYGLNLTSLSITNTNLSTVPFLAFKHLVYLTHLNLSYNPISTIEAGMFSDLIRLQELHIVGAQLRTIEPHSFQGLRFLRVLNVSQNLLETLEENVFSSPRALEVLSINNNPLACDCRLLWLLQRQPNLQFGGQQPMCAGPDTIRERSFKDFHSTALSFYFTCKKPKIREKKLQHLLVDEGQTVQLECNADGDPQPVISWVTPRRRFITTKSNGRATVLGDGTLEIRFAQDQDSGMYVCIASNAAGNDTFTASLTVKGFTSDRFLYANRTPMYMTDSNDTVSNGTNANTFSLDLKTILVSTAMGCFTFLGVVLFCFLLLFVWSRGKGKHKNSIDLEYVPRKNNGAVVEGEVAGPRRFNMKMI

Molecular target: T1, murine TFF3-Fc (mouse) (UniProt Q62395)
T1 sequence: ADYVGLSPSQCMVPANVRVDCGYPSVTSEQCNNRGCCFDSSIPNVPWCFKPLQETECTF
Experiment: co-IP

Lingo2:Flag expressed in CHO cells (from UniProt Q3URE9 28-606) (receptor)
binding: binds
